# Assay results reported in PubChem BioAssay (NCATS).
# The inconclusive results got no clear call from the source; some entries with a clear call stand among them for comparison. A potency beside an inconclusive call is a rough fit, not a confirmed value. The source made the active and inactive calls. Calls follow the shape of the dose curve; as a rule, active = well fitted cell-killing curve with a large enough effect; inconclusive = small, poorly fitted or top-dose-only effect, or effect the other way; inactive = no such curve, though single readings can be large or run the other way.
# Experiment: Quantitative High-Throughput drug screen in 47 multiple myeloma cell lines against the NCATS MIPE library collection: U266_ATCC cell viability assay (AID 1919864); also: nearly all actives have a fitted effect of over 35% in size
# Conditions: U266 myeloma viability, CellTiter-Glo ATP luminescence, 48 h; series mostly up to 45.8 µM; viability (% of DMSO control): at the top concentration
# Excerpt: PI: Beverly A. Mock Ph.D.
# Laboratory of Cancer Biology and Genetics,
# Center for Cancer Research, National Cancer Institute,
# National Institute of Health, Bethesda, Maryland
# Drug resistance and disease progression are common in multiple myeloma (MM) patients, underscoring the need for new therapeutic combinations. […] We hypothesized that effective combinations would reduce MYC expression and enhance p16 activity. […] These preclinical data identify potentially useful drug combinations for evaluation in drug-resistant MM and reveal potential mechanisms of combined drug sensitivity.
# Described herein is the primary MIPE qHTS used to cherrypick compounds. Validated compounds were then further tested for potential synergistic activiy.
# [1] Peat TJ, Gaikwad SM, Dubois W, Gyabaah-Kessie N, Zhang S, Gorjifard S, Phyo Z, Andres M, Hughitt VK, Simpson RM, Miller MA, Girvin AT, Taylor A, Williams D, D'Antonio N, Zhang Y, Rajagopalan A, Flietner E, Wilson K, Zhang X, Shinn P, Klumpp-Thomas C, McKnight C, Itkin Z, Chen L, Kazandijian D, Zhang J, Michalowski AM, Simmons JK, Keats J, Thomas CJ, Mock BA. Drug combinations identified by high-throughput screening promote cell cycle transition and upregulate Smad pathways in myeloma. Cancer Lett. 2023 Aug 1;568:216284. doi: 10.1016/j.canlet.2023.216284. Epub 2023 Jun 24. PMID: 37356470; PMCID: PMC10408729.
# SEQUENCE No. (e.g., 1, 2, 3, etc.); […] (e.g., Cells, Incubation, Reagent, etc.); VALUE and DESCRIPTION.
# 1; Cells; 5 uL; white, solid bottom 1536-well Greiner assay plate.
# 2; Compounds; 23 nL; Kalypsis pin tool (Wako USA) equipped with a 1536-well pin head to transfer to the assay plates.
# 3; Incubation; 48 hours; 37C incubation.
# 4; Reagent;5uL; CellTiter Glo (Promega).
# 5; Detector; 425V; Luminescence; Viewlux PerkinElmer.
# NOTES (numbers refer to Sequence numbers above)
# 1. The cell-based screening methods employed in this study were like those previously published. Briefly, the corresponding myeloma cell lines were screened in 1,536-well plates with 500 cells, 5-uL per well for inhibition of cell viability (assessed by measuring ATP levels with CellTiterGlo).
# 2. NCATS MIPE 4.0 library of approved and investigational drugs were added using the Kalypsis pin tool. Wells treated with DMSO only for 100% viability and media only for 0% viability were used as controls.
# 3. The assay plates were covered and incubated for 48 hours in a 37C, 5% CO2 incubator with controlled humidity.
# 4. After 48 hours, CellTilter-GloTM luminescent substrate mix (Promega) reagent was added to the assay plate and plates we incubated for 5 min at room temperature.
# 5. Signal was measured as median relative luminescence units on a ViewLux (PerkinElmer) multiplate reader.
# [1] Heske CM, Davis MI, Baumgart JT, Wilson K, Gormally MV, Chen L, Zhang X, Ceribelli M, Duveau DY, Guha R, Ferrer M, Arnaldez FI, Ji J, Tran HL, Zhang Y, Mendoza A, Helman LJ, Thomas CJ. Matrix Screen Identifies Synergistic Combination of PARP Inhibitors and Nicotinamide Phosphoribosyltransferase (NAMPT) Inhibitors in Ewing Sarcoma. Clin Cancer Res. 2017 Dec 1;23(23):7301-7311. doi: 10.1158/1078-0432.CCR-17-1121. Epub 2017 Sep 12. PMID: 28899971; PMCID: PMC6636827.
# Potency is read from the fitted curve at half-maximal effect.
Structure (SMILES),Potency,viability (% of DMSO control)
Cc1onc(-c2ccccc2Cl)c1C(=O)N[C@@H]1C(=O)N2[C@@H]1SC(C)(C)[C@@H]2C(=O)O,"inconclusive: 18700 nM [cytotoxic, partial curve, poor fit]",
CC=CCC(C)C(O)C1C(=O)NC(CC)C(=O)N(C)CC(=O)N(C)C(CC(C)C)C(=O)NC(C(C)C)C(=O)N(C)C(CC(C)C)C(=O)NC(C)C(=O)NC(C)C(=O)N(C)C(CC(C)C)C(=O)N(C)C(CC(C)C)C(=O)N(C)C(C(C)C)C(=O)N1C (stereo not drawn),,inactive: 121%
CN1[C@@H]2CCC[C@@H]1CC(NC(=O)c1nn(C)c3ccccc13)C2 (stereo partly drawn),"inconclusive: 16600 nM [cytotoxic, partial curve, poor fit]",
Nc1ccn(C[C@@H](CO)OCP(=O)(O)O)c(=O)n1,,inactive: 144% [at 23.2 µM]
COc1cc([C@@H]2c3cc4c(cc3[C@@H](O[C@@H]3O[C@@H]5CO[C@@H](c6cccs6)O[C@@H]5[C@H](O)[C@@H]3O)[C@H]3COC(=O)[C@H]23)OCO4)cc(OC)c1O,active: 14800 nM,
C[C@H]1C[C@H]2[C@@H]3CCC4=CC(=O)C=C[C@]4(C)[C@@H]3C(=O)C[C@]2(C)[C@@]1(O)C(=O)CO,"inconclusive: 29.6 nM [rising, full curve, poor fit]",
Nc1[nH]c(=O)ncc1F,active: 2640 nM,
OC(CCN1CCCCC1)(c1ccccc1)C1CC2C=CC1C2 (stereo not drawn),,inactive: 116%
O=C(O)CCCCC(CCSCc1ccccc1)SCc1ccccc1 (stereo not drawn),"inconclusive: 1.3 nM [rising, full curve, poor fit]",
COc1ccc(CCC(=O)c2c(O)cc(O[C@@H]3O[C@H](CO)[C@@H](O)[C@H](O)[C@@H]3O[C@@H]3O[C@@H](C)[C@H](O)[C@@H](O)[C@@H]3O)cc2O)cc1O,active: 8330 nM,
CCCCNc1cc(C(=O)O)cc(S(N)(=O)=O)c1Oc1ccccc1,"inconclusive: 4.7 nM [rising, full curve, poor fit]",
CCC(C)(Oc1ccc(C2(c3ccc(OC(C)(CC)C(=O)O)cc3)CCCCC2)cc1)C(=O)O (stereo not drawn),,inactive: 103%
COc1cc(NS(=O)(=O)c2ccc(N)cc2)nc(OC)n1,,inactive: 142%
CC(C)(C)C(=O)OCOP(=O)(COCCn1cnc2c(N)ncnc21)OCOC(=O)C(C)(C)C,active: 332 nM,
CC(=O)N[C@H]1[C@@H]([C@H](O)[C@H](O)CO)OC(C(=O)O)=C[C@@H]1N=C(N)N,"inconclusive: 18.7 nM [rising, full curve]",
COc1cc([C@@H]2c3cc4c(cc3[C@@H](O[C@@H]3O[C@@H]5CO[C@@H](C)O[C@@H]5[C@H](O)[C@@H]3O)[C@H]3COC(=O)[C@H]23)OCO4)cc(OC)c1O,"inconclusive: 1.7 nM [rising, full curve, poor fit]",
CCn1cc(C(=O)O)c(=O)c2cc(F)c(N3CCNCC3)cc21,"inconclusive: 1180 nM [rising, full curve, poor fit]",
C[C@@H]1CC[C@@]2(OC1)OC1CC3C4CC=C5CC(O)CCC5(C)C4CCC3(C)C1[C@@H]2C (stereo partly drawn),"inconclusive: 332 nM [rising, full curve, poor fit]",
COc1c(N2C[C@@H]3CCCN[C@H]3C2)c(F)cc2c(=O)c(C(=O)O)cn(C3CC3)c12,,inactive: 136%
Cc1cn2cc(C(=O)N(C)CCO)cc(N[C@@H]3CCOc4cccc(C)c43)c2n1,"inconclusive: 118 nM [rising, full curve, poor fit]",
O=C(O)CO.[NH2-].[NH2-].[Pt+2],"inconclusive: 18700 nM [rising, partial curve, poor fit]",
CN1c2cc(O)c(N=NC(N)=O)cc2CC1S(=O)(=O)O (stereo not drawn),"inconclusive: 264 nM [rising, full curve, poor fit]",
Nc1nc(=O)n([C@H]2C[C@H](O)[C@@H](CO)O2)cc1F,"inconclusive: 6.6 nM [cytotoxic, full curve, poor fit]",
N[C@@H]1CONC1=O,,inactive: 125%
Nc1ccc(S(=O)(=O)Nc2ccnn2-c2ccccc2)cc1,"inconclusive: 37.2 nM [rising, full curve, poor fit]",
CCN1CCN(C(=O)N[C@H](C(=O)N[C@@H]2C(=O)N3C(C(=O)O)=C(CSc4nnnn4C)CS[C@@H]23)c2ccc(O)cc2)C(=O)C1=O,"inconclusive: 2.1 nM [rising, full curve, poor fit]",
O=C(O)C1CCCN(CCC=C(c2ccccc2)c2ccccc2)C1 (stereo not drawn),"inconclusive: 52.6 nM [rising, full curve, poor fit]",
C=C(C)[C@@H]1CC[C@]2(C(=O)O)CC[C@]3(C)[C@H](CC[C@@H]4[C@@]5(C)CC[C@H](O)C(C)(C)[C@@H]5CC[C@]43C)[C@@H]12,,inactive: 138%

# As entered above.
# COc1c(N2C[C@@H]3CCCN[C@H]3C2)c(F)cc2c(=O)c(C(=O)O)cn(C3CC3)c12 | viability (% of DMSO control): inactive: 136%
# Cc1cn2cc(C(=O)N(C)CCO)cc(N[C@@H]3CCOc4cccc(C)c43)c2n1 | Potency: inconclusive: 118 nM [rising, full curve, poor fit]
